Assay [1] addresses T1, C-terminally 3xFlag-tagged Esrrb (oestrogen-related receptor beta) (mouse) (UniProt Q61539).
T1 sequence: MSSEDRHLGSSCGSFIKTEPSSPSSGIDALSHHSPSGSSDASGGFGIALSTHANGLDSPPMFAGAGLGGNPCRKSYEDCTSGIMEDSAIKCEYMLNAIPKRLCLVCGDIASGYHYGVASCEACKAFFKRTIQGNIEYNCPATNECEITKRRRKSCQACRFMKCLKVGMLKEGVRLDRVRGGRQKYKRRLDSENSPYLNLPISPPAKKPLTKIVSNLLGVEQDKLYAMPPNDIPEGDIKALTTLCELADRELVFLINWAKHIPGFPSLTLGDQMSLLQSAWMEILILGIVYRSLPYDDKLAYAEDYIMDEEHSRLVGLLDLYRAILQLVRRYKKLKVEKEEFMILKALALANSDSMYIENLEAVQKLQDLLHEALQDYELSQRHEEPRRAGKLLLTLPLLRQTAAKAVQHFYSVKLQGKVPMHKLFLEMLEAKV
In words: affinity purification with mass spectrometry; anti-FLAG M2 agarose IP of Esrrb-3xFlag from TS cell nuclear extract dialysed to buffer D (20 mM Hepes pH 7.6, 20% glycerol, 100 mM KCl, 1.5 mM MgCl2, 0.2 mM EDTA), 3 h at 4 °C with Benzonase, elution with FLAG-tripeptide, LC-MS/MS; two biological replicates against vector control.

By UniProt entry, the sequences of proteins in these tests, tags left out.
UniProt Q9JI44: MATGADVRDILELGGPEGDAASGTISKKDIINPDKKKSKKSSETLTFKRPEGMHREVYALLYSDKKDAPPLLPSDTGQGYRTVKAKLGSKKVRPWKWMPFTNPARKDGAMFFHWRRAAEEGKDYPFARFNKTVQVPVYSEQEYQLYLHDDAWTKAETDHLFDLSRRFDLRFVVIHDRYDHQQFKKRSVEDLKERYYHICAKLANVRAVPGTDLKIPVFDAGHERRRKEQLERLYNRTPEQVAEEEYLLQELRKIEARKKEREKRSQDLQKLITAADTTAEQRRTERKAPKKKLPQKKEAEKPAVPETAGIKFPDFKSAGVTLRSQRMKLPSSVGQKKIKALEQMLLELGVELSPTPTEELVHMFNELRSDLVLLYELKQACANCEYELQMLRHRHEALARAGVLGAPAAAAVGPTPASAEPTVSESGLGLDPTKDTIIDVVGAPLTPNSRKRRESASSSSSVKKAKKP
UniProt Q9Z148: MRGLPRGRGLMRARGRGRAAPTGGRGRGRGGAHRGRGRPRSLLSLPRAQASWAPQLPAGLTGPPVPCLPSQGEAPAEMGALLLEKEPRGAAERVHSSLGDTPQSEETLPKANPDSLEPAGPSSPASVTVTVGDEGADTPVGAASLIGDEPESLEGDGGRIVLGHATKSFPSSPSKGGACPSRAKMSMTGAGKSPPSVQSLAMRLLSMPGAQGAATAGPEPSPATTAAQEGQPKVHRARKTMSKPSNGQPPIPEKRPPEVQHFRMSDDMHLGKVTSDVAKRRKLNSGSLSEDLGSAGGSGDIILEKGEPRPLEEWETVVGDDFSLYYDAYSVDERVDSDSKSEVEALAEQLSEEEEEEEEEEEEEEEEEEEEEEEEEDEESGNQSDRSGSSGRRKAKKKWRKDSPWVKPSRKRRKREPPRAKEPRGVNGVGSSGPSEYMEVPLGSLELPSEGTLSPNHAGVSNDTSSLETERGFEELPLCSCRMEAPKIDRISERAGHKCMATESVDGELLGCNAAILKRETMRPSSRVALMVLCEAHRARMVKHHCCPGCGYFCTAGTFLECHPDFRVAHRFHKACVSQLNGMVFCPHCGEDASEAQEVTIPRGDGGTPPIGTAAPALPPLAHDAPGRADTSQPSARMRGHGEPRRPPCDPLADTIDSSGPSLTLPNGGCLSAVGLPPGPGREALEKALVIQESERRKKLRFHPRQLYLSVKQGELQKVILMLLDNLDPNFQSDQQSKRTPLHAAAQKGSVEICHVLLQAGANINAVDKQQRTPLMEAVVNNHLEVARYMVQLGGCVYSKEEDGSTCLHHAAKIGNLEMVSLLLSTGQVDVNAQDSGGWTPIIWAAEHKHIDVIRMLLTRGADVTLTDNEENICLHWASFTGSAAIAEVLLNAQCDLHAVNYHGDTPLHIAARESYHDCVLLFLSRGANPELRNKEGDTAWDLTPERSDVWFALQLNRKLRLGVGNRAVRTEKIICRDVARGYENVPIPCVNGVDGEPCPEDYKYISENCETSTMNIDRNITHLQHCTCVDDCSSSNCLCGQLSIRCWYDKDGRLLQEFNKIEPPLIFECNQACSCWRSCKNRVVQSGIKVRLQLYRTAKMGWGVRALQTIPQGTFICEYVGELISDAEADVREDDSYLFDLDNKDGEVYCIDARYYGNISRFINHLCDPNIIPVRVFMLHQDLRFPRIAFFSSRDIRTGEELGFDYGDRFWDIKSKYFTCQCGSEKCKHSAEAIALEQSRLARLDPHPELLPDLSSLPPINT
UniProt Q8K2A7: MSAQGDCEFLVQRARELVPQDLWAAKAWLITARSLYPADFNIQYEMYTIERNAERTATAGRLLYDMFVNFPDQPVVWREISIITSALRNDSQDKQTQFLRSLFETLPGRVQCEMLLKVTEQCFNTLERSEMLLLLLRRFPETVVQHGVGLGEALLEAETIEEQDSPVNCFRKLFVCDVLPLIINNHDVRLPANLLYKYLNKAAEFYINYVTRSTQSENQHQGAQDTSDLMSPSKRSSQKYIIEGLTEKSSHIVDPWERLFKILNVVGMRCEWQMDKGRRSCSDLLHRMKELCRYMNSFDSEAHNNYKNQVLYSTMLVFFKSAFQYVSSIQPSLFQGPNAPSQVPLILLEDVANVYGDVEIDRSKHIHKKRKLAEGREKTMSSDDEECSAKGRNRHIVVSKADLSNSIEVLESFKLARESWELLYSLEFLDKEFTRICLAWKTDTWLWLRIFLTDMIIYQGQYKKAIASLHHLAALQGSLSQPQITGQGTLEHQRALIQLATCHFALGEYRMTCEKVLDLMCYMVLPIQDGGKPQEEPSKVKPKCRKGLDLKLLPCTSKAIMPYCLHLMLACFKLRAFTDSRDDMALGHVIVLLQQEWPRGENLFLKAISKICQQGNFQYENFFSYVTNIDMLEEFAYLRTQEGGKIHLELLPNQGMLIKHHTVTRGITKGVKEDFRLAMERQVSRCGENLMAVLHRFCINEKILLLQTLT
UniProt Q3UH06: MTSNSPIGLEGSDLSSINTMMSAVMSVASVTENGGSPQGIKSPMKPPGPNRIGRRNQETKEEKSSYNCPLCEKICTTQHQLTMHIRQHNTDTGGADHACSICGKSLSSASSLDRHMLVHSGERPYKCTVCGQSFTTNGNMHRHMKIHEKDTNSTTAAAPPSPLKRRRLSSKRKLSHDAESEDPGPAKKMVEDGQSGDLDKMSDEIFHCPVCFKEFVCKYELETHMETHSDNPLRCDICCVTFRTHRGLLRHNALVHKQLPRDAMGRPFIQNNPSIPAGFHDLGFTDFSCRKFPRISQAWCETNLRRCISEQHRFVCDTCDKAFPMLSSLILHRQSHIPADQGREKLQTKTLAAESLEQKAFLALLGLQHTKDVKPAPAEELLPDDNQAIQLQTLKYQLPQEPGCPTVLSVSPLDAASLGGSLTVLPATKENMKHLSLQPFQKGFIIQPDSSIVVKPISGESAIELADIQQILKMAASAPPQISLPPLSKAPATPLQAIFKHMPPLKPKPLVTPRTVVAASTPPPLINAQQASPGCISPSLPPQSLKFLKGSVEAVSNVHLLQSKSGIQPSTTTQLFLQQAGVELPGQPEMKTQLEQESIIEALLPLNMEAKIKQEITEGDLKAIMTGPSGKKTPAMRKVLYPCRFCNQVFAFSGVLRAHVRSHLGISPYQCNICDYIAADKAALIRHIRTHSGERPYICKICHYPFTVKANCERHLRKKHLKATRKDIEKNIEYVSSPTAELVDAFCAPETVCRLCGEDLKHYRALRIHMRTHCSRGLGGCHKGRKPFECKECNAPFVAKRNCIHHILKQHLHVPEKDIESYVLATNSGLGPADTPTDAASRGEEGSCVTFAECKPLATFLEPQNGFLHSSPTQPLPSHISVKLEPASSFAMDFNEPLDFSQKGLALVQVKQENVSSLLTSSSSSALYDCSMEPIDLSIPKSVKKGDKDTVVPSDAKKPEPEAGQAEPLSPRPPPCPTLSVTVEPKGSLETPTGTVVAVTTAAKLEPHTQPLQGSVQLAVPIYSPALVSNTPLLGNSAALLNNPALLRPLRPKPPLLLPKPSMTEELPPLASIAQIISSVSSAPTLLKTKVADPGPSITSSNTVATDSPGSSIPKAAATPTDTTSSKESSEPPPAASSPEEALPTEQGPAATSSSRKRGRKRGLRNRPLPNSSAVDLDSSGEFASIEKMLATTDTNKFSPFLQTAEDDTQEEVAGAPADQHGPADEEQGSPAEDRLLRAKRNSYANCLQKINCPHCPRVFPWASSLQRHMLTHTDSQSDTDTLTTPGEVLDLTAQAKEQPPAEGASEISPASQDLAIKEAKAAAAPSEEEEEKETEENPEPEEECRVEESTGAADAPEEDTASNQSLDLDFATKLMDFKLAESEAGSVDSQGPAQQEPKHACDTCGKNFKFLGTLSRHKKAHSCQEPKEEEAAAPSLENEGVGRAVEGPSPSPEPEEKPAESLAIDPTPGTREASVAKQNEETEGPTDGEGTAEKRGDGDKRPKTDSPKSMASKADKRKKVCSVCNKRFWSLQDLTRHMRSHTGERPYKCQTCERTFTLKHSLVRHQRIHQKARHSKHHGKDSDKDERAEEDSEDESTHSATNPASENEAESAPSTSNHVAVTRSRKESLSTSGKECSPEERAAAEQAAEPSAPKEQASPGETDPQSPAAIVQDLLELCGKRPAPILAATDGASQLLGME
UniProt Q03347: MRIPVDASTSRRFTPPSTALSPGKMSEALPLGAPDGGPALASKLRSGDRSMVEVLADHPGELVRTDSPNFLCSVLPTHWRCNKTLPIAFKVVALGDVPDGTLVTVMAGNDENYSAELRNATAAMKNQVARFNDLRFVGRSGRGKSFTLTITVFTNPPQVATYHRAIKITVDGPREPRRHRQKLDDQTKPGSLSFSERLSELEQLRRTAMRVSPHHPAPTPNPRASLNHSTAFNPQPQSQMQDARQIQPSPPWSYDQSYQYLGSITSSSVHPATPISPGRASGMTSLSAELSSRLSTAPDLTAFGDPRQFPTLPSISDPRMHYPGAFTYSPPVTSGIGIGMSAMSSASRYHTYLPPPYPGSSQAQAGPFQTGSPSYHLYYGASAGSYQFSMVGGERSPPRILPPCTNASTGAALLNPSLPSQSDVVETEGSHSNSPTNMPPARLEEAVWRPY
UniProt Q9EP97: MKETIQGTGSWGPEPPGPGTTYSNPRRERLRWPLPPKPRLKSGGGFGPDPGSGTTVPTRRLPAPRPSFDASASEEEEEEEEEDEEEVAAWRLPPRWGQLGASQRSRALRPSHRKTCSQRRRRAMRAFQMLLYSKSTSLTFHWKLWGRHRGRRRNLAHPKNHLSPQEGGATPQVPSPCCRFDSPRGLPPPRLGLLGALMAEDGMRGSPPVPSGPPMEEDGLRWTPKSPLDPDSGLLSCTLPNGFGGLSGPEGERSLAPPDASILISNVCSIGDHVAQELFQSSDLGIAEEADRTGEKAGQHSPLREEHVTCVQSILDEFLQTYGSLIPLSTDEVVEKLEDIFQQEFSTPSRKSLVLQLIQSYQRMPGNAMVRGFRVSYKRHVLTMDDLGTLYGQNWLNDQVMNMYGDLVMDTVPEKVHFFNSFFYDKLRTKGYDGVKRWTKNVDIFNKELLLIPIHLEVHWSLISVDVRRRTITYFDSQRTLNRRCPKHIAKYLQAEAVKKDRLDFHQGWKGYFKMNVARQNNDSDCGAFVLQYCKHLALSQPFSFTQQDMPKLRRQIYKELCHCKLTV
UniProt Q91X20: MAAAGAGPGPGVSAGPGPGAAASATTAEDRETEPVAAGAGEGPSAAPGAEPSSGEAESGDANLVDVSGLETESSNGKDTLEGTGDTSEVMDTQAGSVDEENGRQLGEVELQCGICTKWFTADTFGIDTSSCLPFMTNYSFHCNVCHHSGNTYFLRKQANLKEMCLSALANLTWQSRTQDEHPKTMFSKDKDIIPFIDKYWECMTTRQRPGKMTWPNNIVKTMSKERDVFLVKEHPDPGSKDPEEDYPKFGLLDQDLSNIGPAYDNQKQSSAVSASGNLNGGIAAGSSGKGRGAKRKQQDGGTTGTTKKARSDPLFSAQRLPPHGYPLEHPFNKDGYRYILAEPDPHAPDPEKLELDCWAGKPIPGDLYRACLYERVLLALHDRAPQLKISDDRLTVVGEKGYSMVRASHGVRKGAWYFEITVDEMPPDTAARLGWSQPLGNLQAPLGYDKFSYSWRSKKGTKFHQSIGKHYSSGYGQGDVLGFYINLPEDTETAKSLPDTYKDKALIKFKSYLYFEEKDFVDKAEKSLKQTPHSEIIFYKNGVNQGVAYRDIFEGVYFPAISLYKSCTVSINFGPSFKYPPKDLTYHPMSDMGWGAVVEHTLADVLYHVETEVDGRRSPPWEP
UniProt Q62296: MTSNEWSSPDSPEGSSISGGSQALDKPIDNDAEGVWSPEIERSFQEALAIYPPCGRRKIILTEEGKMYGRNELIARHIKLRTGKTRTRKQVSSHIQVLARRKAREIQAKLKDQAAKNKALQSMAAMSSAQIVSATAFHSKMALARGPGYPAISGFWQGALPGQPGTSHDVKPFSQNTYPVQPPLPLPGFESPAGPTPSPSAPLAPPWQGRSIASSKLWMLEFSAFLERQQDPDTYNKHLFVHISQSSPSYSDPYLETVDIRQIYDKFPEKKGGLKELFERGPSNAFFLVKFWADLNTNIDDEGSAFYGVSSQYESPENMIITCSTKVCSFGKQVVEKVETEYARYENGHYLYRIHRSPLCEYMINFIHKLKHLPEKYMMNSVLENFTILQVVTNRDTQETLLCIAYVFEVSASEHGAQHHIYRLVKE

In the next assay the target is T2, Cdx2 (mouse) (UniProt P43241).
T2 sequence: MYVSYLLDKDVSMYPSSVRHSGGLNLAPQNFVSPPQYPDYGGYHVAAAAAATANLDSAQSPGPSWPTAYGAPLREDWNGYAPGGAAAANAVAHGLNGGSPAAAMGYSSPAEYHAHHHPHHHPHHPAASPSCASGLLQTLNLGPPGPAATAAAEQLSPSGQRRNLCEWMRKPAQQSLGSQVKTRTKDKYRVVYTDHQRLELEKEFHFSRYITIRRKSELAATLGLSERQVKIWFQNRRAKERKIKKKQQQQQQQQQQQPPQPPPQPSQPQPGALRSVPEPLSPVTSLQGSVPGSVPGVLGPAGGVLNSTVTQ
Put plainly: co-IP + affinity purification with mass spectrometry; Cdx2 co-immunoprecipitation from TS cells followed by either western blot or mass spectrometry. For orientation: A western blot detects proteins with antibodies after separation by electrophoresis.

Results are given in words; binding and its absence hold for the method and conditions named. Binding seen in cells or lysates may run through a third protein. These calls come from enrichment with a bait or labelling near it, and not all partners need be listed. For part of these data: Sequences can lack the tags named with a protein.

Consider “C-terminal-binding protein 1 (from UniProt O88712 1-441)”, for which the binding entry in assay [1] was “binds”.
Take “DNA methyltransferase 1-associated protein 1 (from UniProt Q9JI44 1-468)”: the binding result in assay [1] was “binds”.
For the substance “E1A-binding protein p400 (from UniProt Q8CHI8 1-3072)”, the binding result in assay [1] is on record as “binds”.
“Histone-lysine N-methyltransferase EHMT2 (from UniProt Q9Z148 1-1263)”: the binding result in assay [1] is “binds”.
For “Host cell factor 1 (mouse (endogenous in TS cells))”, the binding entry in assay [1] is recorded as “binds”.
With “Integrator complex subunit 6 (from UniProt Q6PCM2 1-883)”, in assay [1], the binding result is reported as “binds”.
In the case of “Integrator complex subunit 7 (from UniProt Q7TQK1 1-966)”, the binding result in assay [1] is listed as “binds”.
On the same count and under the same terms, next, “Integrator complex subunit 9 (from UniProt Q8K114 1-658)”: “binds”.
Turning to “Integrator complex subunit 10 (from UniProt Q8K2A7 1-710)”, the binding result in assay [1] is “binds”.
On the same count and under the same terms, the result for “MAX gene-associated protein (from UniProt A2AWL7 1-3003)” reads “binds”; that for “Protein Prdm2 (from UniProt A2A7B5 1-1709)”, “binds”; that for “Ras-responsive element-binding protein 1 (from UniProt Q3UH06 1-1700)”, “binds”.
In the case of “Runt-related transcription factor 1 (from UniProt Q03347 1-451)”, in assay [1], the binding result is “binds”.
Still for that read-out and setting: next, “Sentrin-specific protease 3 (from UniProt Q9EP97 1-568)”: “binds”.
With “Set1/Ash2 histone methyltransferase complex subunit ASH2 (from UniProt Q91X20 1-623)”, in assay [1], the binding entry is on record as “binds”.
For Tead4 (from UniProt Q62296 1-427), in the assay with Cdx2 (mouse), the binding result is reported as “binds”.
Take “Transcription factor EB (from UniProt Q9R210 1-475)”: the binding entry in assay [1] is on record as “binds”.
With “Zinc-finger protein 462 (from UniProt B1AWL2 1-2495)”, the binding result in assay [1] is given as “binds”.

The values above are taken from PMC4525203.
